Laboratory results from publication PMC11535364.
Results are given in words; binding and its absence hold for the method and conditions named. Binding seen in cells or lysates may run through a third protein. Some entries that bind do so weakly or less than the wild type.

By UniProt entry, the sequences of proteins in these tests, tags left out.
UniProt Q9DBL9: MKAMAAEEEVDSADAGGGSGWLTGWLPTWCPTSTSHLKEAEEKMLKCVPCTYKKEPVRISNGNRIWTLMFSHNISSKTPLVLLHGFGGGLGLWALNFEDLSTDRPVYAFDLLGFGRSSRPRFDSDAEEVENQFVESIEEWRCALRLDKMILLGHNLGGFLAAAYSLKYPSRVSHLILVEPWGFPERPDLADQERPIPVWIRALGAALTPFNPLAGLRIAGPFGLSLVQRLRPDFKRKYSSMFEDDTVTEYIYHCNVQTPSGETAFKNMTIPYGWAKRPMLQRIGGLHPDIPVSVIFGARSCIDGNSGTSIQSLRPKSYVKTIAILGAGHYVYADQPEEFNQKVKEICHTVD

B1: Perilipin 1 (PLIN1) (protein, UniProt Q8CGN5 1-517)
chain: MSMNKGPTLLDGDLPEQENVLQRVLQLPVVSGTCECFQKTYNSTKEAHPLVASVCNAYEKGVQGASNLAAWSMEPVVRRLSTQFTAANELACRGLDHLEEKIPALQYPPEKIASELKGTISTRLRSARNSISVPIASTSDKVLGATLAGCELALGMAKETAEYAANTRVGRLASGGADLALGSIEKVVEFLLPPDKESAPSSGRQRTQKAPKAKPSLVRRVSTLANTLSRHTMQTTAWALKQGHSLAMWIPGVAPLSSLAQWGASAAMQVVSRRQSEVRVPWLHNLAASQDESHDDQTDTEGEETDDEEEEEESEAEENVLREVTALPNPRGLLGGVVHTVQNTLRNTISAVTWAPAAVLGTVGRILHLTPAQAVSSTKGRAMSLSDALKGVTDNVVDTVVHYVPLPRLSLMEPESEFRDIDNPSAEAERKGSGARPASPESTPRPGQPRGSLRSVRGLSAPSCPGLDDKTEASARPGFLAMPREKPARRVSDSFFRPSVMEPILGRAQYSQLRKKS
B2: ATGL (enzyme, UniProt Q8BJ56 1-486)
chain: MFPRETKWNISFAGCGFLGVYHIGVASCLREHAPFLVANATHIYGASAGALTATALVTGACLGEAGANIIEVSKEARKRFLGPLHPSFNLVKTIRGCLLKTLPADCHERANGRLGISLTRVSDGENVIISHFSSKDELIQANVCSTFIPVYCGLIPPTLQGVRYVDGGISDNLPLYELKNTITVSPFSGESDICPQDSSTNIHELRVTNTSIQFNLRNLYRLSKALFPPEPMVLREMCKQGYRDGLRFLRRNGLLNQPNPLLALPPVVPQEEDAEEAAVVEERAGEEDQLQPYRKDRILEHLPARLNEALLEACVEPKDLMTTLSNMLPVRLATAMMVPYTLPLESAVSFTIRLLEWLPDVPEDIRWMKEQTGSICQYLVMRAKRKLGDHLPSRLSEQVELRRAQSLPSVPLSCATYSEALPNWVRNNLSLGDALAKWEECQRQLLLGLFCTNVAFPPDALRMRAPASPTAADPATPQDPPGLPPC

Target: ABHD5 (mouse (endogenous in osteoblasts from mouse bone marrow MSCs)) (UniProt Q9DBL9)
Test: co-IP; cells lysed in RIPA buffer (50 mM Tris-HCl pH 7.4, 150 mM NaCl, 1% NP-40, 0.5% sodium deoxycholate, 0.1% SDS, 1 mM EDTA); protein A/G agarose beads with anti-PLIN1 or anti-ABHD5 antibody, 4°C; nonspecific IgG as control; Western blot for PLIN1, ABHD5 or ATGL; for ATGL, osteoblasts with and without lipid droplet treatment

Row | Binder | binding
1 | B1 | binds
2 | B2 | binds
